Data published in article PMC8269012.
Results are given in words; binding and its absence hold for the method and conditions named. A result given as binding can be weak or reduced; the word gives no strength. For some assays here: In cells and extracts the contact can be indirect. For some assays here: Tags and fused reporters may be left off the sequences shown.

B1: ABRE Binding Factor3 (ABF3) (protein, UniProt Q9M7Q3 1-454)
chain: MGSRLNFKSFVDGVSEQQPTVGTSLPLTRQNSVFSLTFDEFQNSWGGGIGKDFGSMNMDELLKNIWTAEESHSMMGNNTSYTNISNGNSGNTVINGGGNNIGGLAVGVGGESGGFFTGGSLQRQGSLTLPRTISQKRVDDVWKELMKEDDIGNGVVNGGTSGIPQRQQTLGEMTLEEFLVRAGVVREEPQPVESVTNFNGGFYGFGSNGGLGTASNGFVANQPQDLSGNGVAVRQDLLTAQTQPLQMQQPQMVQQPQMVQQPQQLIQTQERPFPKQTTIAFSNTVDVVNRSQPATQCQEVKPSILGIHNHPMNNNLLQAVDFKTGVTVAAVSPGSQMSPDLTPKSALDASLSPVPYMFGRVRKTGAVLEKVIERRQKRMIKNRESAARSRARKQAYTMELEAEIAQLKELNEELQKKQVEIMEKQKNQLLEPLRQPWGMGCKRQCLRRTLTGPW
B2: ABF3 in pSPYNE (BiFC fusion) (protein, UniProt Q9M7Q3 1-454)
chain: MGSRLNFKSFVDGVSEQQPTVGTSLPLTRQNSVFSLTFDEFQNSWGGGIGKDFGSMNMDELLKNIWTAEESHSMMGNNTSYTNISNGNSGNTVINGGGNNIGGLAVGVGGESGGFFTGGSLQRQGSLTLPRTISQKRVDDVWKELMKEDDIGNGVVNGGTSGIPQRQQTLGEMTLEEFLVRAGVVREEPQPVESVTNFNGGFYGFGSNGGLGTASNGFVANQPQDLSGNGVAVRQDLLTAQTQPLQMQQPQMVQQPQMVQQPQQLIQTQERPFPKQTTIAFSNTVDVVNRSQPATQCQEVKPSILGIHNHPMNNNLLQAVDFKTGVTVAAVSPGSQMSPDLTPKSALDASLSPVPYMFGRVRKTGAVLEKVIERRQKRMIKNRESAARSRARKQAYTMELEAEIAQLKELNEELQKKQVEIMEKQKNQLLEPLRQPWGMGCKRQCLRRTLTGPW

Experiments:
PwNAC11 (Picea wilsonii) = assay: two-hybrid; pGADT7-PwNAC11 (called the bait) with pGBKT7 fusions (called the prey) in yeast AH109; growth on SD/Trp-Leu-His-Ura selective medium (methods: SD/-Trp-Ura-His-Ade+X-α-gal)
[1] = molecular target: PwNAC11-cYFP fusion protein (Picea wilsonii); assay: split reporter; BiFC with split YFP (pSPYCE, pSPYNE) in agroinfiltrated Nicotiana benthamiana leaves; YFP signal in nuclei by confocal microscopy

Row | Binder | binding (PwNAC11 (Picea wilsonii)) | binding [1]
1 | B1 | binds | –
2 | B2 | – | binds
